Results taken from PMC7064343.
No constants are given. Whether binding was seen depends on the method and setting. In cells and extracts the contact can be indirect. For part of these data: A result given as binding can be weak or reduced; the word gives no strength.

By UniProt entry, the sequences of proteins in these tests, tags left out. Where a name states a change or a piece, a line headed by the entry shows the natural chain unless it says otherwise.
UniProt Q388L6: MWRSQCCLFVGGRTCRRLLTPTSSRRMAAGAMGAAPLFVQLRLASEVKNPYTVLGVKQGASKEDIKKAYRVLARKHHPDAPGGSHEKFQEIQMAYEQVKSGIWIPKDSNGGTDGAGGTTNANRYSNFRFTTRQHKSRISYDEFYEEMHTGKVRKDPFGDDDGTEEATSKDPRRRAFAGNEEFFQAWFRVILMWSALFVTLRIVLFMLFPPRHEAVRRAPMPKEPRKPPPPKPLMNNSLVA
UniProt Q388W2: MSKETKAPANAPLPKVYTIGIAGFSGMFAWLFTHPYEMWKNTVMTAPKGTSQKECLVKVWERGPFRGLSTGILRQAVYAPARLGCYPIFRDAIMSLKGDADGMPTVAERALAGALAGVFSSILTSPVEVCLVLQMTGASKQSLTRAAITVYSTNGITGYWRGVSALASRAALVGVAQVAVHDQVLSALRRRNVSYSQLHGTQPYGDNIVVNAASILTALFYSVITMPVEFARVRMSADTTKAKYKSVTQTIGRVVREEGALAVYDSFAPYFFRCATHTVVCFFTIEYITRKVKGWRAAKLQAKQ
UniProt Q38D74: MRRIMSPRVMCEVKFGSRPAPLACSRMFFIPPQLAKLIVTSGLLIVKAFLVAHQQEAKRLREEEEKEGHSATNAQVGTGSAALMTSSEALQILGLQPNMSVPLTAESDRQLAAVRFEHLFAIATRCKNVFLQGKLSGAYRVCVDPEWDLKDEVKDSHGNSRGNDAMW
UniProt Q38E31: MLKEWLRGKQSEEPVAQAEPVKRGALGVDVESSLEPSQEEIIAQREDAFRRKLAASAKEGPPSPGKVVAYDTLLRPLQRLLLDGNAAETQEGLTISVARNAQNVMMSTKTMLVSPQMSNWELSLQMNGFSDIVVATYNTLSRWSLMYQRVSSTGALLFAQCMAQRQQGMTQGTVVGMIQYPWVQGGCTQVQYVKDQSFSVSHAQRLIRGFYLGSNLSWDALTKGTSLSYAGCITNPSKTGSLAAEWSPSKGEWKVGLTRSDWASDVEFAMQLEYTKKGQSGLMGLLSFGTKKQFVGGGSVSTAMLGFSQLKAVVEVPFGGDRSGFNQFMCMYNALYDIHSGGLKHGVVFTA
UniProt Q38ED9: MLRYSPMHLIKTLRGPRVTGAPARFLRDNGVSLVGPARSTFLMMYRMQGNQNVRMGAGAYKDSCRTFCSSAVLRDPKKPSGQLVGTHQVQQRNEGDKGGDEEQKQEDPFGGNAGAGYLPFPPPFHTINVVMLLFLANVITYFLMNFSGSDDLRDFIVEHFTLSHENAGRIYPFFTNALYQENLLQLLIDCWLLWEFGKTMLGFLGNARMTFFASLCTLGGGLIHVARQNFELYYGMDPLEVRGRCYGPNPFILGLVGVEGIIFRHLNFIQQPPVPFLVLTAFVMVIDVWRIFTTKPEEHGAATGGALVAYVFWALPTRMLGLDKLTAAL

Assays:
[1] = target: TbPam27-myc (C-terminally triple c-myc-tagged TbPam27) (Trypanosoma brucei) (UniProt Q388L6); experiment: co-IP; Cells co-expressing LDH-DHFR-HA and TbPam27-myc, grown with 50 μM aminopterin and 1 mM sulfanilamide for 12 h (stalled presequence intermediate). Digitonin-solubilised mitochondrial extract; IP by the HA- or the myc-tag; immunoblot.
[2] = target: MCP12ΔI-myc (truncated, C-terminally myc-tagged mitochondrial carrier protein MCP12) (T. brucei) (UniProt Q388W2); experiment: co-IP; Cells co-expressing MCP12ΔI-myc and TbPam27-HA (stalled carrier intermediate). Digitonin-solubilised mitochondrial extract; IP by the HA- or the myc-tag; immunoblot.
[3] = target: TbPam27-HA (C-terminally triple HA-tagged TbPam27) (Trypanosoma brucei) (UniProt Q388L6); experiment: as above
[4] = target: TbPam16-HA (C-terminally triple HA-tagged TbPam16) (Trypanosoma brucei) (UniProt Q38D74); experiment: co-IP; Cells expressing one C-terminally triple myc- or HA-tagged bait. Mitochondria-enriched fraction solubilised in 1% digitonin, 20 mM Tris-HCl pH 7.4, 100 mM NaCl, 0.1 mM EDTA, 10% glycerol. Bait captured on anti-HA or anti-c-myc beads, 4°C, 1 h; immunoblot of the eluate. TbPam18-HA and TbPam16-HA were also tested in TbPam27 RNAi cells induced for two days.
[5] = target: TbPam27-myc (C-terminally triple c-myc-tagged TbPam27) (Trypanosoma brucei) (UniProt Q388L6); experiment: as above

binding [1]	binding [2]	binding [3]	binding [4]	binding [5]	Substance
binds	–	–	–	–	ATOM40 (from UniProt Q38E31)
binds	no binding	binds	no binding	binds	TimRhom I (from UniProt Q38ED9)
